The values below come from article PMC2779847.

This assay has as its target M. smegmatis core RNA polymerase (α2ββ'ω) (M. smegmatis) (UniProt A0QSL8). In words: reconstitution of the holoenzyme; M. smegmatis core RNA polymerase mixed with M. tuberculosis σ^A or σ^B (0.25 or 0.95 µM core, 0.5 or 1.9 µM sigma); holoenzymes then used for a pull-down on biotinylated msdps2 promoter DNA (western blot for sigma) and for run-off transcription; both …. For orientation: A western blot detects proteins with antibodies after separation by electrophoresis.

These are yes or no findings as the source states them, for the method shown. Some binding calls cover weakened binding; strength is not graded here.

With “M. tuberculosis sigma factor σ^A (from UniProt P9WGI1 1-528)”, the binding result is “binds”. On to “M. tuberculosis sigma factor σ^B (from UniProt P9WGI5 1-323)”, for which the binding entry was “binds”.
